# Reference: the M2OR odorant receptor database
# Chains of the proteins cited; added tags and fusions are not shown. Lines headed by an entry give the natural chain unless they say otherwise; changes in a name come on top. A line that says so, or that is headed by a name, gives the form on record, which may keep a tag or linker.
# UniProt Q8NH02: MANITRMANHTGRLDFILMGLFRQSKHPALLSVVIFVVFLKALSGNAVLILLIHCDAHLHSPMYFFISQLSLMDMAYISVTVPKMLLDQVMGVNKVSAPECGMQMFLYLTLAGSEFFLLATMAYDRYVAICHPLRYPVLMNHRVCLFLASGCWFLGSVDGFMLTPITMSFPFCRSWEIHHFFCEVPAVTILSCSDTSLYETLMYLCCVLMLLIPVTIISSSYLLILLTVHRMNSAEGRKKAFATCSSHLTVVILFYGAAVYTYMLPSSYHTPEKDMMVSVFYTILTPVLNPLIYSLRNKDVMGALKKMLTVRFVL
# OR2T1, as listed by the source: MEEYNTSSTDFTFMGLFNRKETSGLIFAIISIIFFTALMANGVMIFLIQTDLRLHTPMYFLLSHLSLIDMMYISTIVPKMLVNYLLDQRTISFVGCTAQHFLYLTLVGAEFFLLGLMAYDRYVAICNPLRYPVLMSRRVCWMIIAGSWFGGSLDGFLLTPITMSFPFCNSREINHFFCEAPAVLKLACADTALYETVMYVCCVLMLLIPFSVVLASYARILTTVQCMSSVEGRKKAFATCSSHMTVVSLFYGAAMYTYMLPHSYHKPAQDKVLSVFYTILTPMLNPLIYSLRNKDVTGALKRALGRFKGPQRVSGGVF
# Positions count from the first letter of the chain named. This is a selection; strong and weak results do not stand in their true shares. Calls are pooled over several reports, among them a noisy single-well screen. The list shows a part of the results.
# Experiments:
# Settings in all cases: stereoisomer not certain
# OR2T1 [1] = tested on: OR2T1
# Procedure, shortened: (§1)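 Whether a receptor–molecule pair is responsive (active) rests on the original authors' judgment that its measured signal was statistically different from baseline. Pairs without that judgment are non-responsive (inactive). Sources used varied assay methods, commonly transient luciferase assays in mammalian cell lines.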
# OR2T1 [2] = tested on: OR2T1; remark: listed apart in the source
# Procedure, shortened: as §1
# OR2T29 (Homo sapiens) = OR2T29 (Homo sapiens) (UniProt Q8NH02)
# Procedure, shortened: as §1
# OR2T35 (Homo sapiens) = OR2T35 (Homo sapiens) (UniProt Q8NGX2)
# Procedure, shortened: as §1
# OR2T1 [3] = tested on: T1, OR2T1; remark: listed apart in the source
# T1 sequence (whole entry): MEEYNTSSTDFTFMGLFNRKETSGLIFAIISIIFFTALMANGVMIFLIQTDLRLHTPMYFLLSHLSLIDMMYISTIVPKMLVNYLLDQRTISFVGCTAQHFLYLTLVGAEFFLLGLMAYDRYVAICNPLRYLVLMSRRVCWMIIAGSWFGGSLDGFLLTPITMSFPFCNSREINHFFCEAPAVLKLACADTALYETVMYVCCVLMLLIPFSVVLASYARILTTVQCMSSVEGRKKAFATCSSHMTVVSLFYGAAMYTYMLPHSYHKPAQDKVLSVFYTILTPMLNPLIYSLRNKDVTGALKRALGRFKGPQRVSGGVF
# Procedure, shortened: as §1
# OR2T3 (Homo sapiens) = molecular target: T2, OR2T3 (Homo sapiens) (UniProt Q8NH03)
# T2 sequence (whole entry): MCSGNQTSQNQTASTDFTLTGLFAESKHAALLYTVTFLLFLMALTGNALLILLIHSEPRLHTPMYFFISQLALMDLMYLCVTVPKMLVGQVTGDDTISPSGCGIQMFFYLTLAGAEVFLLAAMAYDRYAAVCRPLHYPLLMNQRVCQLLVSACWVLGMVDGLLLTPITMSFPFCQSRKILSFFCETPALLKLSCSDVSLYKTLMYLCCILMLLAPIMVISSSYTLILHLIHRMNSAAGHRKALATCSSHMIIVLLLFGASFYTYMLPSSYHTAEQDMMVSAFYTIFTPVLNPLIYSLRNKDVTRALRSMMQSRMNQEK
# Procedure, shortened: as §1
# OR2T4 = tested on: T3, OR2T4
# T3 sequence (whole entry): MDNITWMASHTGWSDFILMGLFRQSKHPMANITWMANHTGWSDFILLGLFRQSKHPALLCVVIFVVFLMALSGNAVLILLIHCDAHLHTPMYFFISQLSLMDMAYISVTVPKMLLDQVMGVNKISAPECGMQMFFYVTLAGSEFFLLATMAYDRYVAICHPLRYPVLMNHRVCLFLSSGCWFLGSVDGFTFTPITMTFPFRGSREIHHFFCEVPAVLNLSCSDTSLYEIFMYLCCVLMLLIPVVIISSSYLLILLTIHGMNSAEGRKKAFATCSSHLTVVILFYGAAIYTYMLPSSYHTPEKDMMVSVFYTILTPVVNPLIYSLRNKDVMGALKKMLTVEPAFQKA
# Procedure, shortened: as §1
# OR2T2 = tested on: T4, OR2T2
# T4 sequence (whole entry): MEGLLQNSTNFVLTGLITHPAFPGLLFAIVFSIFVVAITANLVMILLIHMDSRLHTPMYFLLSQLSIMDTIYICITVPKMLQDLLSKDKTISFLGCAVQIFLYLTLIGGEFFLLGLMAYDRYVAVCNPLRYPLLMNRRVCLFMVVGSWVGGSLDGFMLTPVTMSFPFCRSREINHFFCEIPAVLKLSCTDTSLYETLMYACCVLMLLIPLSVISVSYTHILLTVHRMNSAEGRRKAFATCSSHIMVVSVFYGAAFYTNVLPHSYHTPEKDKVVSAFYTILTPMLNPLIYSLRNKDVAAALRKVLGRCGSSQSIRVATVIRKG
# Procedure, shortened: as §1
# OR2T34 (Homo sapiens) = molecular target: T5, OR2T34 (Homo sapiens) (UniProt Q8NGX1)
# T5 sequence (whole entry): T2 sequence (whole entry) with Y109H, T202M, M204T, A214T, H239R, P267R
# Procedure, shortened: as §1
# OR2T4 (Homo sapiens) = molecular target: T6, OR2T4 (Homo sapiens) (UniProt Q8NH00)
# T6 sequence (whole entry): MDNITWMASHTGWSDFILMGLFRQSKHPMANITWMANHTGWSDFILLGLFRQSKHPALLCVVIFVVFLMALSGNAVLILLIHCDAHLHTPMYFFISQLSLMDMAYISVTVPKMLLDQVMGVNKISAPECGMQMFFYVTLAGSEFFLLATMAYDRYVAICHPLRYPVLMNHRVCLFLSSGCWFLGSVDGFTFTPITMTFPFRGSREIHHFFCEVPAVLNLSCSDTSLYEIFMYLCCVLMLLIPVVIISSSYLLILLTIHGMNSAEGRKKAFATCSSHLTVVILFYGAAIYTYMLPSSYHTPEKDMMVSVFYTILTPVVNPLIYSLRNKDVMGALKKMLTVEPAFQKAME
# Procedure, shortened: as §1
# 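Also: active if original authors judged signal statistically different from baseline.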
smiles,measurement,setting,value
CCCC(=O)O,odorant receptor agonist call,OR2T1 [1],active
same,odorant receptor agonist call,OR2T1 [2],active
CC12C=CCC1C1CCC3CC(=O)CCC3(C)C1CC2 (centres undefined),odorant receptor agonist call,OR2T29 (Homo sapiens),inactive
same,odorant receptor agonist call,OR2T35 (Homo sapiens),inactive
CC(=O)c1ccccc1,odorant receptor agonist call,OR2T1 [3],inactive
same,odorant receptor agonist call,OR2T3 (Homo sapiens),inactive
same,odorant receptor agonist call,OR2T4,active
CCCCCCCOC(C)=O,odorant receptor agonist call,OR2T1 [3],inactive
same,odorant receptor agonist call,OR2T2,inactive
same,odorant receptor agonist call,OR2T3 (Homo sapiens),inactive
same,odorant receptor agonist call,OR2T4,inactive
CCCCCCCCOC(C)=O,odorant receptor agonist call,OR2T1 [3],inactive
same,odorant receptor agonist call,OR2T2,inactive
same,odorant receptor agonist call,OR2T3 (Homo sapiens),inactive
same,odorant receptor agonist call,OR2T4,inactive
CCCCCC(C)=O,odorant receptor agonist call,OR2T1 [3],inactive
same,odorant receptor agonist call,OR2T3 (Homo sapiens),inactive
same,odorant receptor agonist call,OR2T34 (Homo sapiens),inactive
same,odorant receptor agonist call,OR2T4,active
C=C(C)C1CC=C(C)C(=O)C1 (centres undefined),odorant receptor agonist call,OR2T4 (Homo sapiens),inactive
O=C1CCCCC1,odorant receptor agonist call,OR2T1 [3],inactive
same,odorant receptor agonist call,OR2T3 (Homo sapiens),inactive
same,odorant receptor agonist call,OR2T4,inactive
CC(C)(O)CCCC1=CCC(C=O)CC1 (centres undefined),odorant receptor agonist call,OR2T2,inactive
same,odorant receptor agonist call,OR2T4 (Homo sapiens),inactive
CC(C)=CCCC(C)=CC=O,odorant receptor agonist call,OR2T1 [3],inactive
same,odorant receptor agonist call,OR2T2,inactive
same,odorant receptor agonist call,OR2T3 (Homo sapiens),inactive
same,odorant receptor agonist call,OR2T4,inactive
CCCCCCOC(=O)CCC,odorant receptor agonist call,OR2T1 [3],inactive
same,odorant receptor agonist call,OR2T2,inactive
same,odorant receptor agonist call,OR2T3 (Homo sapiens),inactive
same,odorant receptor agonist call,OR2T4,inactive
C=CCSCC=C,odorant receptor agonist call,OR2T1 [3],inactive
same,odorant receptor agonist call,OR2T2,inactive
same,odorant receptor agonist call,OR2T3 (Homo sapiens),inactive
same,odorant receptor agonist call,OR2T4,inactive
CC12CCC(C1)C(C)(C)C2=O (centres undefined),odorant receptor agonist call,OR2T1 [3],inactive
same,odorant receptor agonist call,OR2T2,inactive
same,odorant receptor agonist call,OR2T3 (Homo sapiens),inactive
same,odorant receptor agonist call,OR2T4,inactive
CCC=CCCO,odorant receptor agonist call,OR2T1 [3],inactive
same,odorant receptor agonist call,OR2T2,inactive
same,odorant receptor agonist call,OR2T3 (Homo sapiens),inactive
same,odorant receptor agonist call,OR2T4,inactive
COC(=O)c1ccccc1,odorant receptor agonist call,OR2T1 [3],inactive
same,odorant receptor agonist call,OR2T3 (Homo sapiens),inactive
same,odorant receptor agonist call,OR2T4,inactive
CC1=CCC(C(C)(C)O)CC1 (centres undefined),odorant receptor agonist call,OR2T1 [3],inactive
same,odorant receptor agonist call,OR2T2,inactive
same,odorant receptor agonist call,OR2T3 (Homo sapiens),inactive
same,odorant receptor agonist call,OR2T4,inactive
CC(C)(C)c1ccc(CCC=O)cc1,odorant receptor agonist call,OR2T1 [3],inactive
same,odorant receptor agonist call,OR2T2,inactive
same,odorant receptor agonist call,OR2T3 (Homo sapiens),inactive
same,odorant receptor agonist call,OR2T4,inactive
CC(C)C=O,odorant receptor agonist call,OR2T1 [3],inactive
same,odorant receptor agonist call,OR2T2,inactive
same,odorant receptor agonist call,OR2T3 (Homo sapiens),inactive
same,odorant receptor agonist call,OR2T4,inactive
CC1=NC(C)SC1C (centres undefined),odorant receptor agonist call,OR2T1 [3],inactive
same,odorant receptor agonist call,OR2T3 (Homo sapiens),inactive
same,odorant receptor agonist call,OR2T4,inactive
CCCCCCCCCC=O,odorant receptor agonist call,OR2T1 [3],inactive
same,odorant receptor agonist call,OR2T2,inactive
same,odorant receptor agonist call,OR2T3 (Homo sapiens),inactive
same,odorant receptor agonist call,OR2T4,inactive
C=C(C)C1CCC2=CC(=O)CC(C)C2(C)C1 (centres undefined),odorant receptor agonist call,OR2T2,active
COC(=O)c1ccccc1O,odorant receptor agonist call,OR2T1 [3],inactive
same,odorant receptor agonist call,OR2T2,inactive
same,odorant receptor agonist call,OR2T3 (Homo sapiens),inactive
same,odorant receptor agonist call,OR2T4,inactive
c1cnccn1,odorant receptor agonist call,OR2T1 [3],inactive
same,odorant receptor agonist call,OR2T2,inactive
same,odorant receptor agonist call,OR2T3 (Homo sapiens),inactive
same,odorant receptor agonist call,OR2T4,inactive
CCCCCCCC=CC=O,odorant receptor agonist call,OR2T1 [3],inactive
same,odorant receptor agonist call,OR2T2,inactive
same,odorant receptor agonist call,OR2T3 (Homo sapiens),inactive
same,odorant receptor agonist call,OR2T4,inactive
CC(=O)C(C)=O,odorant receptor agonist call,OR2T1 [3],inactive
same,odorant receptor agonist call,OR2T2,inactive
same,odorant receptor agonist call,OR2T3 (Homo sapiens),inactive
same,odorant receptor agonist call,OR2T4,inactive
CCCCCCCCC=O,odorant receptor agonist call,OR2T4 (Homo sapiens),inactive
C=CCc1ccc(O)c(OC)c1,odorant receptor agonist call,OR2T4 (Homo sapiens),inactive
CCC1(O)C2(C)CCC(C2)C1(C)C (centres undefined),odorant receptor agonist call,OR2T1 [3],inactive
same,odorant receptor agonist call,OR2T2,inactive
same,odorant receptor agonist call,OR2T3 (Homo sapiens),active
same,odorant receptor agonist call,OR2T4,inactive
O=CCc1ccccc1,odorant receptor agonist call,OR2T1 [3],inactive
same,odorant receptor agonist call,OR2T2,active
same,odorant receptor agonist call,OR2T3 (Homo sapiens),inactive
same,odorant receptor agonist call,OR2T4,inactive

# Part of the list above, tab-delimited:
smiles	measurement	setting	value
CCCCCC(C)=O	odorant receptor agonist call	OR2T3 (Homo sapiens)	inactive
CCC=CCCO	odorant receptor agonist call	OR2T3 (Homo sapiens)	inactive
c1cnccn1	odorant receptor agonist call	OR2T3 (Homo sapiens)	inactive
CCCCCCCC=CC=O	odorant receptor agonist call	OR2T2	inactive
